For the assay, the system named is BDF1 mice, colon carcinoma 38 sc, T/C %. Description: NCI In Vivo Anticancer Drug Screen. Data for tumor model Colon Carcinoma 38 (subcutaneous) in B6D2F1 (BDF1) mice. Put shortly:
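Transplantable tumor in mice; compound-treated vs vehicle-dosed controls. Measured survival or tumor size; value = T ÷ C.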

Setting [1] is: T/C endpoint: median tumor weight (est.), dose: 400.0 mg/kg/injection, schedule: Q07DX002 (ip), vehicle: saline with Tween-80, higher T/C = larger tumour.
Where [2] appears, read: T/C endpoint: median tumor weight (est.), dose: 25.0 mg/kg/injection, schedule: Q07DX002 (ip), vehicle: Klucel (hydroxypropylcellulose) (HPC), evaluated on day 20, higher T/C = larger tumour.

Molecules are shown by their SMILES. The list is a part of this screen's results and no random one: it is rich in T/C values a quarter to a half above the control, in often repeated tests (any T/C) and in doses without a T/C. Further doses and runs are listed elsewhere. T/C is the treated group as % of the vehicle group. Schedules are NCI's codes, read here as Q, the interval in days (D) or hours (H), X, the number of doses. Some T/C values are followed by the survivors on the day toxicity was checked, most often the fifth; without a count, all were alive then. Some entries hold several experiments; the results are listed from low to high. Additions like (4×) stand for listed records that agree. Some entries give survivors of the animals treated and no T/C: the source holds a T/C of zero for them, seemingly a mark for toxic or unscored doses. Counts of survivors are from the toxicity check (mostly the fifth day) where no day follows; animals may have died later. Where survival is the endpoint, the PubChem record calls one and a half times the control and up active, and a quarter to a half above the control has no call in these data; cut-offs in other NCI protocols can differ.

Turning to `COc1cccc2c1C(=O)c1c(O)c3c(c(O)c1C2=O)CC(O)(/C(C)=N/NC(=O)CCC(=O)N/N=C(\C)C1(O)Cc2c(O)c4c(c(O)c2C(OC2CC(N)C(O)C(C)O2)C1)C(=O)c1c(OC)cccc1C4=O)CC3OC1CC(N)C(O)C(C)O1` (configuration not stated), the T/C (T/C endpoint: median survival time, dose: 45.0 mg/kg/injection, schedule: Q07DX003 (sc), vehicle: water, higher T/C = longer survival) was 148 % of control. Moreover, the survivor count (T/C endpoint: median tumor weight (est.), dose: 48.0 mg/kg/injection, schedule: Q07DX002 (ip), vehicle: water, higher T/C = larger tumour) was 1 of 10 on day 20; the survivor count (T/C endpoint: median tumor weight (est.), dose: 64.0 mg/kg/injection, schedule: Q07DX002 (ip), vehicle: water, higher T/C = larger tumour) is on record as 5 of 10 on day 20; the survivor count (T/C endpoint: median tumor weight (est.), dose: 128.0 mg/kg/injection, schedule: Q07DX002 (ip), vehicle: distilled water + Tween-80, higher T/C = larger tumour) was 2 of 10 on day 20; the survivor count (T/C endpoint: median tumor weight (est.), dose: 128.0 mg/kg/injection, schedule: Q07DX002 (ip), vehicle: water, higher T/C = larger tumour) is recorded as 1 of 10 on day 20.

As to `CC1(C)CC1(Br)Br`, the T/C is 125 % of control (T/C endpoint: median tumor weight (est.), dose: 12.5 mg/kg/injection, schedule: Q07DX002 (ip), vehicle: saline with Tween-80, evaluated on day 20, higher T/C = larger tumour); 147 % of control (T/C endpoint: median tumor weight (est.), dose: 50.0 mg/kg/injection, schedule: Q07DX002 (ip), vehicle: saline with Tween-80, evaluated on day 20, higher T/C = larger tumour); 134 % of control (T/C endpoint: median tumor weight (est.), dose: 200.0 mg/kg/injection, schedule: Q07DX002 (ip), vehicle: saline with Tween-80, evaluated on day 20, higher T/C = larger tumour). Further, the survivor count under setting [1] is reported as 5 of 10 on day 20.

As for `C/C=C/c1cc2c(c(=O)o1)C(=O)[C@@H](O)[C@H](C)O2`, under setting [1], the survivor count was 3 of 10 on day 20 and 6 of 10 on day 20.

Regarding `Nc1nc(N)c2cc(CNc3ccc(C(=O)NC(CC(=O)O)CC(=O)O)cc3)ccc2n1`, the T/C is 144 % of control under setting [2]; 127 % of control (T/C endpoint: median tumor weight (est.), dose: 50.0 mg/kg/injection, schedule: Q07DX002 (ip), vehicle: Klucel (hydroxypropylcellulose) (HPC), evaluated on day 20, higher T/C = larger tumour); 146 % of control (T/C endpoint: median tumor weight (est.), dose: 100.0 mg/kg/injection, schedule: Q07DX002 (ip), vehicle: Klucel (hydroxypropylcellulose) (HPC), evaluated on day 20, higher T/C = larger tumour).

`O=c1n(CC2CO2)c(=O)n(CC2CO2)n1CC1CO1` (configuration not stated): the survivor count runs as follows: (T/C endpoint: median tumor weight (est.), dose: 100.0 mg/kg/injection, schedule: Q07DX002 (ip), vehicle: saline, higher T/C = larger tumour) 0 of 10 on day 20; (T/C endpoint: median tumor weight (est.), dose: 200.0 mg/kg/injection, schedule: Q07DX002 (ip), vehicle: saline, higher T/C = larger tumour) 0 of 10 on day 20.

As for `CC1CCC(NC(=O)N(CCCl)N=O)CC1` (configuration not stated), the T/C runs as follows: (T/C endpoint: median tumor weight (est.), dose: 4.0 mg/kg/injection, schedule: Q07DX002 (ip), vehicle: saline with Tween-80, evaluated on day 20, higher T/C = larger tumour) 63, 82 [9 of 10 alive on day 20], 89 (2×), 89 [8 of 10 alive on day 20], 100, 112, 121, 123, 124, 135 % of control; (T/C endpoint: median tumor weight (est.), dose: 8.0 mg/kg/injection, schedule: Q07DX002 (ip), vehicle: saline with Tween-80, evaluated on day 20, higher T/C = larger tumour) 52 [9 of 10 alive on day 20], 59, 72 [9 of 10 alive on day 20], 76, 81, 83 [9 of 10 alive on day 20], 104 [9 of 10 alive on day 20], 110 (2×), 111, 135 % of control [9 of 10 alive on day 20]; (T/C endpoint: median tumor weight (est.), dose: 16.0 mg/kg/injection, schedule: Q07DX002 (ip), vehicle: saline with Tween-80, evaluated on day 20, higher T/C = larger tumour) 36, 46, 47, 63, 72 [9 of 10 alive on day 20], 76, 82, 94 [9 of 10 alive on day 20], 100, 109, 125 % of control; (T/C endpoint: median tumor weight (est.), dose: 32.0 mg/kg/injection, schedule: Q07DX002 (ip), vehicle: saline with Tween-80, evaluated on day 20, higher T/C = larger tumour) 5 [8 of 10 alive on day 20], 18 [9 of 10 alive on day 20], 19, 27 [8 of 10 alive on day 20], 39, 53 [9 of 10 alive on day 20], 56, 75 [8 of 10 alive on day 20], 82, 96 % of control [9 of 10 alive on day 20]; (T/C endpoint: median tumor weight (est.), dose: 64.0 mg/kg/injection, schedule: Q07DX002 (ip), vehicle: saline with Tween-80, evaluated on day 20, higher T/C = larger tumour) 4, 12 [9 of 10 alive on day 20], 41 [9 of 10 alive on day 20], 51 % of control. Besides, the survivor count runs as follows: (T/C endpoint: median tumor weight (est.), dose: 32.0 mg/kg/injection, schedule: Q07DX002 (ip), vehicle: saline with Tween-80, higher T/C = larger tumour) 5 of 10 on day 20; (T/C endpoint: median tumor weight (est.), dose: 64.0 mg/kg/injection, schedule: Q07DX002 (ip), vehicle: Klucel (hydroxypropylcellulose) (HPC), higher T/C = larger tumour) 3 of 10 on day 20; (T/C endpoint: median tumor weight (est.), dose: 64.0 mg/kg/injection, schedule: Q07DX002 (ip), vehicle: saline with Tween-80, higher T/C = larger tumour) 0 of 10 on day 20, 3 of 10 on day 20, 4 of 10 on day 20, 5 of 10 on day 20.

As for `COC1=C(N)C(=O)c2nc(-c3nc(C(=O)O)c(C)c(-c4ccc(OC)c(OC)c4O)c3N)ccc2C1=O`, under “T/C endpoint: median tumor weight (est.), dose: 0.02 mg/kg/injection, schedule: Q07DX003 (ip), vehicle: Klucel (hydroxypropylcellulose) (HPC), evaluated on day 20, higher T/C = larger tumour”, the T/C was 136 % of control.

Turning to `COc1cccc2c1C(=O)c1c(O)c3c(c(O)c1C2=O)C[C@@](O)(C(C)=O)C[C@@H]3OC1CC(N(Cc2ccccc2)Cc2ccccc2)C(O)C(C)O1` (some centres not stated), the survivor count by setting is: (T/C endpoint: median tumor weight (est.), dose: 54.0 mg/kg/injection, schedule: Q07DX002 (ip), vehicle: distilled water + Tween-80, higher T/C = larger tumour) 1 of 10 on day 20; (T/C endpoint: median tumor weight (est.), dose: 108.0 mg/kg/injection, schedule: Q07DX002 (ip), vehicle: distilled water + Tween-80, higher T/C = larger tumour) 1 of 10 on day 20; (T/C endpoint: median tumor weight (est.), dose: 108.0 mg/kg/injection, schedule: Q07DX002 (ip), vehicle: saline with Tween-80, higher T/C = larger tumour) 1 of 10 on day 20; (T/C endpoint: median tumor weight (est.), dose: 216.0 mg/kg/injection, schedule: Q07DX002 (ip), vehicle: distilled water + Tween-80, higher T/C = larger tumour) 0 of 10 on day 20; (T/C endpoint: median tumor weight (est.), dose: 216.0 mg/kg/injection, schedule: Q07DX002 (ip), vehicle: saline with Tween-80, higher T/C = larger tumour) 1 of 10 on day 20 and 3 of 10 on day 20.

`COc1c(CNC(=O)CCl)cc2[nH]c(C)cc2c1CNC(=O)CCl`: the T/C under setting [2] was 135 % of control.

`N=C(N)Sc1ccccn1`: the T/C was 129 and 138 % of control (T/C endpoint: median tumor weight (est.), dose: 50.0 mg/kg/injection, schedule: Q07DX003 (ip), vehicle: saline, evaluated on day 20, higher T/C = larger tumour); 125 % of control (T/C endpoint: median tumor weight (est.), dose: 100.0 mg/kg/injection, schedule: Q07DX003 (ip), vehicle: saline, evaluated on day 20, higher T/C = larger tumour).

For `C1CC[N-]CC1.C1CC[N-]CC1.C1CC[N-]CC1.[Cl][Rh]([Cl])[Cl]`, the T/C runs as follows: (T/C endpoint: median tumor weight (est.), dose: 25.0 mg/kg/injection, schedule: Q07DX002 (ip), vehicle: saline, evaluated on day 20, higher T/C = larger tumour) 128 % of control; (T/C endpoint: median tumor weight (est.), dose: 200.0 mg/kg/injection, schedule: Q07DX002 (ip), vehicle: saline, evaluated on day 20, higher T/C = larger tumour) 131 % of control.

As for `COc1c(O)c2c(c3cc(C(=O)N4CCc5c4c(O)c(OC)c4[nH]c(C(=O)N6CC7CC78C6=CC(=O)c6[nH]cc(C)c68)cc54)[nH]c13)CCN2C(N)=O` (configuration not stated), under “T/C endpoint: median tumor weight (est.), dose: 12.5 micrograms/kg/injection, schedule: Q07DX002 (ip), vehicle: DMSO, evaluated on day 20, higher T/C = larger tumour”, the T/C is 134 % of control. In addition, the survivor count reads like this: (T/C endpoint: median tumor weight (est.), dose: 100.0 micrograms/kg/injection, schedule: Q07DX002 (ip), vehicle: DMSO, higher T/C = larger tumour) 5 of 10 on day 20; (T/C endpoint: median tumor weight (est.), dose: 200.0 micrograms/kg/injection, schedule: Q07DX002 (ip), vehicle: DMSO, higher T/C = larger tumour) 3 of 10 on day 20.

Regarding `CC1=C(/C=C/C(C)=C/C=C/C(C)=C/C(=O)O)C(C)(C)CCC1`, the T/C was 127 % of control (T/C endpoint: median tumor weight (est.), dose: 16.0 mg/kg/injection, schedule: Q07DX003 (ip), vehicle: saline with Tween-80, evaluated on day 20, higher T/C = larger tumour); 147 % of control (T/C endpoint: median tumor weight (est.), dose: 50.0 mg/kg/injection, schedule: Q07DX003 (ip), vehicle: saline with Tween-80, evaluated on day 20, higher T/C = larger tumour); 148 % of control (T/C endpoint: median tumor weight (est.), dose: 100.0 mg/kg/injection, schedule: Q07DX003 (ip), vehicle: saline with Tween-80, evaluated on day 20, higher T/C = larger tumour); 140 % of control (T/C endpoint: median tumor weight (est.), dose: 128.0 mg/kg/injection, schedule: Q07DX003 (ip), vehicle: saline with Tween-80, evaluated on day 20, higher T/C = larger tumour).

For the compound `CCN(CC)CCNc1ccc(CO)c2sc3ccccc3c(=O)c12`, under “T/C endpoint: median tumor weight (est.), dose: 200.0 mg/kg/injection, schedule: Q07DX003 (ip), vehicle: clinical formulation, higher T/C = larger tumour”, the survivor count is 2 of 10 on day 20.

Regarding `COc1cc(NCc2ccc3nc(N)nc(N)c3c2C)cc(OC)c1OC` (tested in a mixture with another compound), the T/C (T/C endpoint: median tumor weight (est.), dose: 70.0 mg/kg/injection, schedule: Q07DX002 (ip), vehicle: water, evaluated on day 20, higher T/C = larger tumour) is 125 % of control [9 of 10 alive on day 20]. Moreover, the survivor count is, setting by setting: (T/C endpoint: median tumor weight (est.), dose: 354.0 mg/kg/injection, schedule: Q07DX002 (ip), vehicle: water, higher T/C = larger tumour) 0 of 10 on day 20; (T/C endpoint: median tumor weight (est.), dose: 531.0 mg/kg/injection, schedule: Q07DX002 (ip), vehicle: water, higher T/C = larger tumour) 0 of 10 on day 20.

Regarding `Cc1ccc(C(=O)[O][Hg][CH2]C2COC([CH2][Hg][O]C(=O)c3ccc(C)cc3)CO2)cc1` (configuration not stated), the T/C under setting [2] is 144 % of control.

For `NC(=S)c1cn(C2OC(CO)C(O)C2O)c2ncnc(N)c12` (configuration not stated), the survivor count (T/C endpoint: median tumor weight (est.), dose: 20.0 mg/kg/injection, schedule: Q07DX002 (ip), vehicle: suspension in saline, higher T/C = larger tumour) is 1 of 10 on day 20.

Values taken from PubChem BioAssay AID212 (DTP/NCI, 2004).
